According to US12582720B2, “Compound for preventing or treating lipid metabolism-related diseases” (Fudan University, priority 2020, dated 2026):

System: lipid droplet in MEF or SH-SY5Y cells
Experiment: Verification of BODIPY lipid droplet detection in the presence of high compound concentration
Format: cell-based
Details: 50 μM Sudan IV, OA-induced cells, compared with DMSO control

## Cc1ccccc1/N=N/c1ccc(/N=N/c2c(O)ccc3ccccc23)c(C)c1 [Sudan IV, reference compound]
  lipid droplet BODIPY signal in the presence of the compound: no decrease; also recorded: no signal change

Entries after “also recorded” stand apart in the source; their conditions may differ.
